PubChem BioAssay AID1259308, NCATS | 2017
Shown is a random part of about 59,000 reagents tested. About 1,510 of all reagents (2.6%) count as active. 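Calls use total luciferase alone and ignore viability, so some active siRNAs may act by altering cell number.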 Entries without a mark were called inactive. The numbers tell different reagents against one gene apart. Further read-outs or replicates are left out here.

Aim: 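Candidate targets for better recombinant protein yield in mammalian cells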 (primary screen)
Cell system: human HEK293 embryonic kidney cells stably expressing firefly luciferase (HEK-CMV-Luc2-Hygro)
Reagents: single siRNA against human genes, 0.8 pmol siRNA per well
Timing: 72 h
Measured: 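Reporter luminescence and viable-cell signal on separate replicate plates, given as percent of non-targeting control and median/MAD z-scores, plus per-cell luciferase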
Scale: total luciferase, z-score: higher = more reporter protein produced
Rule for the call: 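Active when the median/MAD z-score for overall luciferase is greater than 3; a gene was taken forward for validation with new siRNAs if at least two of its three siRNAs passed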
Calls: active = raised luciferase; inactive = no rise

PLA2G12A #1
- total luciferase, z-score: -1.38

PLA2G12A #2
- total luciferase, z-score: 0.295

PLA2G12A #3
- total luciferase, z-score: 1.57

RPL23P7 #1
- total luciferase, z-score: -0.716

RPL23P7 #2
- total luciferase, z-score: 0.855

RPL23P7 #3
- total luciferase, z-score: -0.795

NSF #1
- total luciferase, z-score: 1.05

NSF #2
- total luciferase, z-score: -0.18

NSF #3
- total luciferase, z-score: 1.05

WHR1 #1
- total luciferase, z-score: -0.346

WHR1 #2
- total luciferase, z-score: -0.247

WHR1 #3
- total luciferase, z-score: 0.0188

ACKR5 #1
- total luciferase, z-score: -0.571

ACKR5 #2
- total luciferase, z-score: -0.659

ACKR5 #3
- total luciferase, z-score: -1.88

GNA12 #1
- total luciferase, z-score: 1.97

GNA12 #2
- total luciferase, z-score: 0.444

GNA12 #3
- total luciferase, z-score: 0.663

RDH13 #1
- total luciferase, z-score: 1.09

RDH13 #2
- total luciferase, z-score: -0.1

RDH13 #3
- total luciferase, z-score: 0.942

ZNF570 #1
- total luciferase, z-score: -0.287

ZNF570 #2
- total luciferase, z-score: -0.361

ZNF570 #3
- total luciferase, z-score: 0.922

ICE2P2 #1
- total luciferase, z-score: 0.659

ICE2P2 #2
- total luciferase, z-score: -0.645

ICE2P2 #3
- total luciferase, z-score: -0.635

KLF8 #1
- total luciferase, z-score: -1.52

KLF8 #2
- total luciferase, z-score: 0.318

KLF8 #3
- total luciferase, z-score: -0.217

PDXP #1
- total luciferase, z-score: 4.14 (active)

PDXP #2
- total luciferase, z-score: 0.686

PDXP #3
- total luciferase, z-score: -1.22

A run of entries of the results above:
ACKR5 #1
- total luciferase, z-score: -0.571

ACKR5 #2
- total luciferase, z-score: -0.659

ACKR5 #3
- total luciferase, z-score: -1.88

GNA12 #1
- total luciferase, z-score: 1.97

GNA12 #2
- total luciferase, z-score: 0.444
